Data: patent US20050208468A1, “Assays with primary cells” (priority 2003, published 2005)
At least one structure is not confirmed: it was looked up by name or label, or the drawing left a doubt.

Columns and labels:
PPARγ = PPARγ activity assay based on PEPCK expression, coded carriers in a shared fluid volume; type: cell-based, human
primary pre-adipocytes = test: adipocyte differentiation assay based on lipid accumulation, coded carriers in a shared fluid volume; type: cell-based; conditions: visceral and subcutaneous pre-adipocyte samples from four human subjects; multiple days; FIG. 10

Row | SMILES | induction of PEPCK expression as a measure of PPARγ activity (PPARγ; four donor samples in a shared fluid volume, four days, FIG. 12) | tissue preference of PEPCK expression activation (PPARγ; visceral vs subcutaneous samples, these and other data) | differentiation index (lipid accumulation), variation among samples (primary pre-adipocytes) | PEPCK expression (signal above background) (PPARγ; visceral vs subcutaneous pre-adipocyte samples, anti-PEPCK immunofluorescence, multiple days, FIG. 11)
1 | CC1(COc2ccc(CC3SC(=O)NC3=O)cc2)CCCCC1 (stereo not shown) [ciglitazone] | weak and variable induction | preferentially activate PEPCK expression in visceral samples | – | –
2 | Cc1c(C)c2c(c(C)c1O)CCC(C)(COc1ccc(CC3SC(=O)NC3=O)cc1)O2 (stereo not shown) [troglitazone] | – | – | substantial donor (and population) variability for differentiation responses (at least about four-fold) | each visceral sample providing dramatically increased PEPCK over each subcutaneous sample
